{
  "source": "patent US9624164B2",
  "about": "“Phenyl carbamate compounds for use in preventing or treating epilepsy” (Bio-Pharm Solutions Co., Ltd., priority 2011, dated 2017)",
  "key": {"male ICR mice [1]": {"test_system": "male ICR mice", "assay": "MES test (maximal electroshock, corneal electrodes), oral administration, mice", "assay_type": "in vivo"}, "male ICR mice [2]": {"test_system": "male ICR mice", "assay": "scPTZ test (subcutaneous pentylenetetrazol-induced clonic seizure), intraperitoneal administration, mice", "assay_type": "in vivo", "method": "After Peak time (0.5, 1, 2 and 4 hr) from the administration, PTZ (Pentylenetetrazol) was administered subcutaneously in the concentration capable of inducing 97% intermittent convulsions (mice: 100˜110 mg/kg·bw, 100 ul/g, or rats: 90˜110 mg/kg·bw, 20 ul/g). If clonic seizure was not observed for at least 3 seconds in the PTZ administered animal, it can be considered that the test compound has anti-epilepsy activity."}},
  "data": [
    {"smiles": "CC(C)[C@H](OC(N)=O)[C@@H](O)c1ccccc1Cl", "note": "[Compound 9, 1-(2-chlorophenyl)-(S)-1-hydroxy-3-methyl-butyl-(S)-2-carbamate]", "values": [
      {"measurement": "MES test(po) Peak Time", "setting": "male ICR mice [1]", "result": 0.5, "unit": "h"}
    ]},
    {"smiles": "C[C@H](OC(N)=O)[C@@H](O)c1ccccc1Cl", "note": "[Compound 1, 1-(2-chlorophenyl)-(S)-1-hydroxypropyl-(S)-2-carbamate]", "values": [
      {"measurement": "ScPTZ test(ip) Peak Time", "setting": "male ICR mice [2]", "result": 2, "unit": "h"},
      {"measurement": "MES test(po) Peak Time", "setting": "male ICR mice [1]", "result": 2, "unit": "h"}
    ]},
    {"smiles": "CC(OC(N)=O)C(O)c1ccccc1Cl", "note": "(racemic) [Compound 3, 1-(2-chlorophenyl)-1-hydroxypropyl-2-carbamate]", "values": [
      {"measurement": "ScPTZ test(ip) Peak Time", "setting": "male ICR mice [2]", "result": 0.5, "unit": "h"},
      {"measurement": "MES test(po) Peak Time", "setting": "male ICR mice [1]", "result": 2, "unit": "h"}
    ]},
    {"smiles": "CC[C@H](OC(N)=O)[C@@H](O)c1ccc(Cl)cc1Cl", "note": "[Compound 39, 1-(2,4-dichlorophenyl)-(S)-1-hydroxybutyl-(S)-2-carbamate]", "values": [
      {"measurement": "ScPTZ test(ip) Peak Time", "setting": "male ICR mice [2]", "result": 0.5, "unit": "h"},
      {"measurement": "MES test(po) Peak Time", "setting": "male ICR mice [1]", "result": 1, "unit": "h"}
    ]},
    {"smiles": "C[C@@H](OC(N)=O)[C@H](O)c1c(Cl)cccc1Cl", "note": "[Compound 46, 1-(2,6-dichlorophenyl)-(R)-1-hydroxypropyl-(R)-2-carbamate]", "values": [
      {"measurement": "MES test(po) Peak Time", "setting": "male ICR mice [1]", "result": 1, "unit": "h"}
    ]},
    {"smiles": "CC(C)[C@H](OC(N)=O)[C@@H](O)c1c(Cl)cccc1Cl", "note": "[Compound 42, 1-(2,6-dichlorophenyl)-(S)-1-hydroxy-3-methyl-butyl-(S)-2-carbamate]", "values": [
      {"measurement": "MES test(po) Peak Time", "setting": "male ICR mice [1]", "result": 0.5, "unit": "h"}
    ]},
    {"smiles": "CC[C@H](OC(N)=O)[C@@H](O)c1ccccc1Cl", "note": "[Compound 6, 1-(2-chlorophenyl)-(S)-1-hydroxybutyl-(S)-2-carbamate]", "values": [
      {"measurement": "ScPTZ test(ip) Peak Time", "setting": "male ICR mice [2]", "result": 0.5, "unit": "h"},
      {"measurement": "MES test(po) Peak Time", "setting": "male ICR mice [1]", "result": 1, "unit": "h"}
    ]},
    {"smiles": "C[C@H](OC(N)=O)[C@@H](O)c1cccc(Cl)c1Cl", "note": "[Compound 38, 1-(2,3-dichlorophenyl)-(S)-1-hydroxypropyl-(S)-2-carbamate]", "values": [
      {"measurement": "MES test(po) Peak Time", "setting": "male ICR mice [1]", "result": 2, "unit": "h"}
    ]},
    {"smiles": "C[C@@H](OC(N)=O)[C@H](O)c1ccccc1Cl", "note": "[Compound 2, 1-(2-chlorophenyl)-(R)-1-hydroxypropyl-(R)-2-carbamate]", "values": [
      {"measurement": "ScPTZ test(ip) Peak Time", "setting": "male ICR mice [2]", "result": 0.5, "unit": "h"},
      {"measurement": "MES test(po) Peak Time", "setting": "male ICR mice [1]", "result": 0.25, "unit": "h"}
    ]},
    {"smiles": "C[C@H](OC(N)=O)[C@@H](O)c1c(Cl)cccc1Cl", "note": "[Compound 37, 1-(2,6-dichlorophenyl)-(S)-1-hydroxypropyl-(S)-2-carbamate]", "values": [
      {"measurement": "ScPTZ test(ip) Peak Time", "setting": "male ICR mice [2]", "result": 0.25, "unit": "h"},
      {"measurement": "MES test(po) Peak Time", "setting": "male ICR mice [1]", "result": 0.25, "unit": "h"}
    ]},
    {"smiles": "C[C@@H](OC(N)=O)[C@@H](O)c1ccccc1Cl", "note": "[Compound 4, 1-(2-chlorophenyl)-(S)-1-hydroxypropyl-(R)-2-carbamate]", "values": [
      {"measurement": "MES test(po) Peak Time", "setting": "male ICR mice [1]", "result": 0.5, "unit": "h"}
    ]},
    {"smiles": "C[C@H](OC(N)=O)[C@H](O)c1ccccc1Cl", "note": "[Compound 5, 1-(2-chlorophenyl)-(R)-1-hydroxypropyl-(S)-2-carbamate]", "values": [
      {"measurement": "ScPTZ test(ip) Peak Time", "setting": "male ICR mice [2]", "result": 0.5, "unit": "h"},
      {"measurement": "MES test(po) Peak Time", "setting": "male ICR mice [1]", "result": 0.5, "unit": "h"}
    ]}
  ]
}
